Measurements reported in patent publication US8809538B2, “Piperidine-containing compounds and use thereof” (Array BioPharma Inc., priority 2009, dated 2014).

Tested on: high fat-fed obese mice (C57BL/6-DIO)
Assay: Assay of an anti-diabetic effect in DIO (diet-induced obese) mice
Type: in vivo
Settings: oral, 30 or 100 mg/kg b.i.d. for 15 days
Source text: (1) Assay of an Anti-Diabetic Effect of the Compounds in DIO (Diet-Induced Obese) Mice
Male, 12-weeks old high fat-fed obese mice (C57BL/6-DIO, Charles River Japan) were orally administered with the compounds of the present invention twice a day for 15 days. During the experiment, mice were provided high fat pellet diet (D12492, Research Diets) and tap water from bottle of feed water ad libitum. On the first day of the experiment, blood samples were collected from tail vein using a microcapillary to measure plasma glucose concentration. Based on plasma glucose concentration, mice were divided into some groups (five mice per group) and started dosing. The dosing was carried out by oral gavage, after suspending the compounds of the present invention in the previously described vehicle. The control group received only the vehicle. After 15 days from starting the dosing, plasma samples were collected from tail vein at overnight fasting state. Plasma glucose and insulin levels were measured with commercial kits (glucose, Glucose CH-Test Wako®, Wako Pure Chemical Industries, Ltd.; insulin, Rat Insulin ELISA Kit, Morinaga Institute of Biological Science Inc.).

CCOc1nc(C(=O)NCC2CCN(Cc3cnc(-c4ccccn4)s3)CC2)cc(N)c1C#N [Example 115, 4-amino-5-cyano-6-ethoxy-N-((1-((2-(pyridin-2-yl)thiazol-5-yl)methyl)piperidin-4-yl)methyl)picolinamide]
effect on body weight: without any effects
effect on food intake: without any effects
